Measurements published in article doi:10.1101/2024.09.19.613872.
Results are given in words; binding and its absence hold for the method and conditions named. In cells and extracts the contact can be indirect. Some results given as binding are weak or reduced against the parent protein; the word gives no strength.

Sequences of proteins named here, by UniProt entry; tags and fusion partners are left off. A change or cut given only in a name is not applied to a line headed by its entry.
UniProt Q96C45: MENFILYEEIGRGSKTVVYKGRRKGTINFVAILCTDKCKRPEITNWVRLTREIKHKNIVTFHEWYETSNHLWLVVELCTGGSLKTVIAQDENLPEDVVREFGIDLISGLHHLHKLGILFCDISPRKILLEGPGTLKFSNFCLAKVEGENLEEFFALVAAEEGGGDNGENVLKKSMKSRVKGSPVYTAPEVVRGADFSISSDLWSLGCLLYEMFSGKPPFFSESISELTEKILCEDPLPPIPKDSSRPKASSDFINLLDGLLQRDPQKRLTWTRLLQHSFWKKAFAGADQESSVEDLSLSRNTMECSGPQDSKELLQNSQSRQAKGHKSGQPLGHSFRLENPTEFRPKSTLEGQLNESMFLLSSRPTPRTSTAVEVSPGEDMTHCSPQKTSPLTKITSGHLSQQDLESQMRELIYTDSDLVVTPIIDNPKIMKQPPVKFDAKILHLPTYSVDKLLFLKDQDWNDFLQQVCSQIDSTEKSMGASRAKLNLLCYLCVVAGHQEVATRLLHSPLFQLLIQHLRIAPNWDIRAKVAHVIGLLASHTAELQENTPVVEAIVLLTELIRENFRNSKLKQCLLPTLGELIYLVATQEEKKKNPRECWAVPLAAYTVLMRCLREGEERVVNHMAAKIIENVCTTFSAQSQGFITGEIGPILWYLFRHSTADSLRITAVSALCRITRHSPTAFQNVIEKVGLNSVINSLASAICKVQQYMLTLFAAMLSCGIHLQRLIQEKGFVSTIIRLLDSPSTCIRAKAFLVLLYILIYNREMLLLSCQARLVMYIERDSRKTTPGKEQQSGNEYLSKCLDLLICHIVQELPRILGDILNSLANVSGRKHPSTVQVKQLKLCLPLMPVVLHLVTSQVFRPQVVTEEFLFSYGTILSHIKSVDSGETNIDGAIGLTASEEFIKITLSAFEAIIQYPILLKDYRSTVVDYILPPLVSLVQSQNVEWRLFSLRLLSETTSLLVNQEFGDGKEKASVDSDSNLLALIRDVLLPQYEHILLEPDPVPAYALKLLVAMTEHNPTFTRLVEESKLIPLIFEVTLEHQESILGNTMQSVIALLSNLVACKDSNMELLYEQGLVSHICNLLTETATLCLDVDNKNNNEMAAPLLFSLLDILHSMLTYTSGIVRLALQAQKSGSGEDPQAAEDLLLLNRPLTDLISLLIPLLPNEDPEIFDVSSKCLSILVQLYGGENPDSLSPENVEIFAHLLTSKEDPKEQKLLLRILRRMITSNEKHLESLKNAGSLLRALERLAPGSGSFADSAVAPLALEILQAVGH

Target: C-terminally HA-tagged wild type human Ulk4 (human) (UniProt Q96C45)
Test: co-IP; HEK293T cells transfected with Fg-tagged and HA-tagged Ulk4 constructs; immunoprecipitation and western blot with the indicated antibodies; which tag was precipitated is not given

binding: binds
Substance: Flag-tagged Ulk4-EE (human Ulk4 T1021E/T1023E, phospho-mimetic) (from UniProt Q96C45 1-1275)
